Results published in patent EP4722243A1.
Positions count from the first letter of the chain named. These are yes or no findings as the source states them, for the method shown. Some results given as binding are weak or reduced against the parent protein; the word gives no strength.

Amino acid sequences for entries named in this document (tags omitted). Residues count along the entry.
UniProt P20809, residues 22-199: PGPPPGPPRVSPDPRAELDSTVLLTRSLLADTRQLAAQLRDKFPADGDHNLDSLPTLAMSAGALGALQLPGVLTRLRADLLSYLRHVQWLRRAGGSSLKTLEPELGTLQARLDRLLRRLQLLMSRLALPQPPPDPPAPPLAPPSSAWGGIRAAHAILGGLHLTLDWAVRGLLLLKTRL

B1: MA-I phage monoclonal antibody (phage-displayed single-chain antibody) (scFv, V domains shown)
VH: EVKLEESGGGLVKPGGSLKLSCAASGFTFSDYYMFWVRQTPEKRLEWVATISDGGTYTYYPDSVKGRFTISRDNAKNNLYLQMTSLKSEDTAMYYCARDGGYVSSPEAMDYWGQGTSVTVSS
VL: DIVLTQSTSSLSASLGDRVTISCRASQDISNYLNWYQQKPDGTVKLLIYYTSRLHSGVPSRFSGSGSGTDYSLTISNLEQEDIATYFCQQGNTLPPTFGGGTKLEIK
B2: MA-II phage monoclonal antibody (phage-displayed single-chain antibody) (scFv, V domains shown)
VH: B1 VH
VL: B1 VL with P96W
B3: MA-III phage monoclonal antibody (phage-displayed single-chain antibody) (scFv, V domains shown)
VH: EVKLEQSGAEVVKPGALVKMSCKASGYTFTSYWMHWVKQRPGQGLEWIGVIDPSDSYTTYNQKFKGKATLTVDTSSSTGYMQLSSLTSEDSAVYYCSQYGYDVNWYFDVWGAGTTVTVSS
VL: DIVMTQTTLSLPVSLGDQASISCRSSQSIVHSNGNTYLEWYLQKPGQSPKLLIYEVSNRFSGVPDRFSGSGSGTDFTLKISRVEAEDLGVYYCFQGSHVPWTFGGGTKLEIK
B4: MA-IV phage monoclonal antibody (phage-displayed single-chain antibody) (scFv, V domains shown)
VH: B1 VH with K3Q, A23V, T56S, T58S, T84S, K87R, V103I
VL: B1 VL

Target: human IL-11 (human) (UniProt P20809)
Experiment: phage gradient-dilution ELISA, IL-11 coated

Row | Binder | binding
1 | B1 | binds
2 | B2 | binds
3 | B3 | binds
4 | B4 | binds
